Laboratory results reported in the supplement of paper PMC10849652.
The other results are listed elsewhere or left out.

Amino acid sequences for entries named in this document (tags omitted). A change or cut given only in a name is not applied to a line headed by its entry.
UniProt Q9NQT4, whole entry, looked up: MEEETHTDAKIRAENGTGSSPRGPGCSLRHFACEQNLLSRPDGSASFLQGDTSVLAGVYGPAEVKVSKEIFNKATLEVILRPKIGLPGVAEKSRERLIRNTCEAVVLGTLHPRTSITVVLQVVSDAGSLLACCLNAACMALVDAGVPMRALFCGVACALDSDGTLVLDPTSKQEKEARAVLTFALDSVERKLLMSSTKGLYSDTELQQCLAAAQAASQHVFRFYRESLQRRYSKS
UniProt P19447: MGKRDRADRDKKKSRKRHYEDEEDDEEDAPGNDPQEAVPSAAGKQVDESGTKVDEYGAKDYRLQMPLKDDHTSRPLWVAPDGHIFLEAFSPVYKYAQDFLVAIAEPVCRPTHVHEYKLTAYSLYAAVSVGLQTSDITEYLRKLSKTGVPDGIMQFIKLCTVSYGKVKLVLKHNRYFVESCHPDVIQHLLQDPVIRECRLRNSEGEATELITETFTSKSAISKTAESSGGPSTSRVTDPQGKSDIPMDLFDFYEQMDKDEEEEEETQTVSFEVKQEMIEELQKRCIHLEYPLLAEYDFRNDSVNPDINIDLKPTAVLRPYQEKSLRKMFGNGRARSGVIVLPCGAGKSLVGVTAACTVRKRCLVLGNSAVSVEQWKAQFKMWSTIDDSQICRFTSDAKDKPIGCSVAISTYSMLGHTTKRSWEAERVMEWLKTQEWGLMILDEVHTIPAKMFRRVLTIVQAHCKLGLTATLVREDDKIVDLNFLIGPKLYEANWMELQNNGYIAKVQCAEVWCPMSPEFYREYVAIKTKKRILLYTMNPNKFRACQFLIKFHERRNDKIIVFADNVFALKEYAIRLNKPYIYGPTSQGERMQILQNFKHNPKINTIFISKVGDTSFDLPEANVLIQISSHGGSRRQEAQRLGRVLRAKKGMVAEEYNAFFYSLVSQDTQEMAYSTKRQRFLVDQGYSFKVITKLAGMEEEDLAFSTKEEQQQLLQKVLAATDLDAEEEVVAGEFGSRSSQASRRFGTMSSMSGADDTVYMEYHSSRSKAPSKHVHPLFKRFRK
UniProt A0FGR8: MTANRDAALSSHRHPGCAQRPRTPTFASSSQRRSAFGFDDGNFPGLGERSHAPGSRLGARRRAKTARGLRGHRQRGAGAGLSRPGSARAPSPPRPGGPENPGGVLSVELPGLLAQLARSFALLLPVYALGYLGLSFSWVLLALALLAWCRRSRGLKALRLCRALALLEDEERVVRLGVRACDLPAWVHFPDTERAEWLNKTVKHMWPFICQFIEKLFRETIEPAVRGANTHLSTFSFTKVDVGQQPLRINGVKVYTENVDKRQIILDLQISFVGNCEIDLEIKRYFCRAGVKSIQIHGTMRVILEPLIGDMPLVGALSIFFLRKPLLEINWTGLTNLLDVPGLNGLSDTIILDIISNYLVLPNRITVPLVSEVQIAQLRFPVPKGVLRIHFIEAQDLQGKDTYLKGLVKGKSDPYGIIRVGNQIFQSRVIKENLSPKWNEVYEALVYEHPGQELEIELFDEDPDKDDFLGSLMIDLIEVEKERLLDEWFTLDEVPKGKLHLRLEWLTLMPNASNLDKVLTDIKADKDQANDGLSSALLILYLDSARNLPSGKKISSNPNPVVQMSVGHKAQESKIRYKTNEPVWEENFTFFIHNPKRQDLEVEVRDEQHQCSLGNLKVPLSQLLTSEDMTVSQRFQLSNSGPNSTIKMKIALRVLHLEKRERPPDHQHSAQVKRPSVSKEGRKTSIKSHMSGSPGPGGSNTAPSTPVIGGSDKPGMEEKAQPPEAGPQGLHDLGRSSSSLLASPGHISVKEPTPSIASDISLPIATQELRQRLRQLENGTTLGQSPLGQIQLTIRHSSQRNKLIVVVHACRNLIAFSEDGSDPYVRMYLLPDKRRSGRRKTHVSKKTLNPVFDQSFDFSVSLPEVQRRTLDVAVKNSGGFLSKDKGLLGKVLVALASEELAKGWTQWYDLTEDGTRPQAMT
UniProt Q6P179: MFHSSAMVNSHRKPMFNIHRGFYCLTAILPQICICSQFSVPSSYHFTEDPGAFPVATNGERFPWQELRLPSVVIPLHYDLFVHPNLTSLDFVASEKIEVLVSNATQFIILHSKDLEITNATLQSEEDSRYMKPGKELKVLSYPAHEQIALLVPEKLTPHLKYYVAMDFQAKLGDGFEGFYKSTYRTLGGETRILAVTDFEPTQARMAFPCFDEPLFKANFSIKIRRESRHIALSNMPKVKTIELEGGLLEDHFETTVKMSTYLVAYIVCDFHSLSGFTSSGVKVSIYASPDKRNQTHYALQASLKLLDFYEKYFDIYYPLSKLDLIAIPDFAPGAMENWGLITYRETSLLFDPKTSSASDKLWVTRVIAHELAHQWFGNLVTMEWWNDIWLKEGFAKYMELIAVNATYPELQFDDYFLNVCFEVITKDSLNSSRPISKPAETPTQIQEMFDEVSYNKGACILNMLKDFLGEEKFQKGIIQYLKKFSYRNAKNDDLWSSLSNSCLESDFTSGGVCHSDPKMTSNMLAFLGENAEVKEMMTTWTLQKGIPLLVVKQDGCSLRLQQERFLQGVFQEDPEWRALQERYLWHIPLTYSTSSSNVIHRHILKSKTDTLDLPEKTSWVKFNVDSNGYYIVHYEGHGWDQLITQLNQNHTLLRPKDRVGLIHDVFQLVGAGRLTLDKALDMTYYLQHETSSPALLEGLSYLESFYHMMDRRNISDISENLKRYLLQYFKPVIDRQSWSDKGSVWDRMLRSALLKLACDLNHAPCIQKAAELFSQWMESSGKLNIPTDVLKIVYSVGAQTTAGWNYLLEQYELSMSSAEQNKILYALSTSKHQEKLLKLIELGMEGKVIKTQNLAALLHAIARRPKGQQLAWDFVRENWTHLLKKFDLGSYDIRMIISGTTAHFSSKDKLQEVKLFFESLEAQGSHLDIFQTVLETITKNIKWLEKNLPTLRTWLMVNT
UniProt Q9NWS6: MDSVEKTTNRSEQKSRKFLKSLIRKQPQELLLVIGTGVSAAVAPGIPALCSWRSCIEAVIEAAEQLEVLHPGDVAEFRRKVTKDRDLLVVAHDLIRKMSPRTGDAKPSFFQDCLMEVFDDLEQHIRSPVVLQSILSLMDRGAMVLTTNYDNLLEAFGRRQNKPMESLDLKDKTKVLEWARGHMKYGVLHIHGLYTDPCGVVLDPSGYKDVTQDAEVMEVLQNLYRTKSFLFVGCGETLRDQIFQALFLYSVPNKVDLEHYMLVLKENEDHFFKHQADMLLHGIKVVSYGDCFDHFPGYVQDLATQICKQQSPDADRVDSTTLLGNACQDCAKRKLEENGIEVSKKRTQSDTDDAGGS
UniProt Q96EK7: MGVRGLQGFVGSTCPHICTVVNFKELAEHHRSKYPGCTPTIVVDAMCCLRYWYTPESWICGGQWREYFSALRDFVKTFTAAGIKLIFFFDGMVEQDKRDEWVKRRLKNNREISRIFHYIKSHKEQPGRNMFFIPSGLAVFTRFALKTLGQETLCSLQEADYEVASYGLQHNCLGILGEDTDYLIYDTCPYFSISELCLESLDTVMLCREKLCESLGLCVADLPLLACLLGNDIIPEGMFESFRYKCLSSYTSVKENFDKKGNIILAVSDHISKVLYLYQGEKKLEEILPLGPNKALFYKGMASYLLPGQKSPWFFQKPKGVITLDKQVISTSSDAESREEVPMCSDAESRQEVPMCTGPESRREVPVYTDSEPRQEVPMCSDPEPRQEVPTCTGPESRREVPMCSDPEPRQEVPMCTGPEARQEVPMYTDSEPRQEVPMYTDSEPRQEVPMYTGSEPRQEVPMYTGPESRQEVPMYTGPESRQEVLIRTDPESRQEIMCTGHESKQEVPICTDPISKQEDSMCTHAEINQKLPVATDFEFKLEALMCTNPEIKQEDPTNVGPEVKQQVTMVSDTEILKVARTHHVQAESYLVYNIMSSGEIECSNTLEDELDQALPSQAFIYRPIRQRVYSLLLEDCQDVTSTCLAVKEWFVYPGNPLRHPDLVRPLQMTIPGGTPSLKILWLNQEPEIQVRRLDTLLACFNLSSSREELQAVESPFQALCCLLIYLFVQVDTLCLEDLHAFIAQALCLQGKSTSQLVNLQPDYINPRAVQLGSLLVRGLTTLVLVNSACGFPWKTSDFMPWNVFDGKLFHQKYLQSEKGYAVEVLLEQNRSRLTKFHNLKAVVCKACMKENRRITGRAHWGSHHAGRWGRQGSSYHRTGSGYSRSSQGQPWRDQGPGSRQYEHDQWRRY
UniProt Q8IWE2: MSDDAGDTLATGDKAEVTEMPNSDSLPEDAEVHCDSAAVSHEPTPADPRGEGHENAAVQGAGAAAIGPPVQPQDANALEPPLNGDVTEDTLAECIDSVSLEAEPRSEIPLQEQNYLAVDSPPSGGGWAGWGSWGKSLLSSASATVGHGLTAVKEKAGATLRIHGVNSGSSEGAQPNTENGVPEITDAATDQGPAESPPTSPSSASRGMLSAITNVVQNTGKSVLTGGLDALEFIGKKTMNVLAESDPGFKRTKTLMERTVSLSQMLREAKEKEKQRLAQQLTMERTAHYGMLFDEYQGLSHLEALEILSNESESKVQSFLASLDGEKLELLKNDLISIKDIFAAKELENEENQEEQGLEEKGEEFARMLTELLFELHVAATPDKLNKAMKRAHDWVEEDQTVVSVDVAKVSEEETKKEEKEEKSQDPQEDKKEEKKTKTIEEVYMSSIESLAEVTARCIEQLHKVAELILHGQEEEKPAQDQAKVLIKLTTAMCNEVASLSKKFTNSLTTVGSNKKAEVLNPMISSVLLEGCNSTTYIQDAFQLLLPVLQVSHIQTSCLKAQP
UniProt Q15910, whole entry, looked up: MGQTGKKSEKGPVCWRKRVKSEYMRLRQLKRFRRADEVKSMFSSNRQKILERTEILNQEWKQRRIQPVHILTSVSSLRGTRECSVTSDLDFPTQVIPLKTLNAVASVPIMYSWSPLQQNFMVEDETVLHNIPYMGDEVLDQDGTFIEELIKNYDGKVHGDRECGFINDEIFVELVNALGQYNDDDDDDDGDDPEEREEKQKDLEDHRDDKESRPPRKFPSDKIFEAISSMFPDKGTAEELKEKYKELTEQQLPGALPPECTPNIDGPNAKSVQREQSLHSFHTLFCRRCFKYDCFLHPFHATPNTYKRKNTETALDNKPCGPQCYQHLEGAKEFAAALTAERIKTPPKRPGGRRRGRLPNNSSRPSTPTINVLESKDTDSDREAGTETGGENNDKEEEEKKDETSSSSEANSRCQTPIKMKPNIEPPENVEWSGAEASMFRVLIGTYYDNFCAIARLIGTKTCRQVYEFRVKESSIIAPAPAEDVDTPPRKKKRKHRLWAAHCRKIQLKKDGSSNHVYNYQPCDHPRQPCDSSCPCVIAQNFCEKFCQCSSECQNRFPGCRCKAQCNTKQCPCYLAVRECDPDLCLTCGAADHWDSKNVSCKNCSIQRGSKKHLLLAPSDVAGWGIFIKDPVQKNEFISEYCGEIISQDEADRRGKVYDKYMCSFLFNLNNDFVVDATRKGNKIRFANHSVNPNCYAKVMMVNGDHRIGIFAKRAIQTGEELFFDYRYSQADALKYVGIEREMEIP
UniProt Q9H8W3: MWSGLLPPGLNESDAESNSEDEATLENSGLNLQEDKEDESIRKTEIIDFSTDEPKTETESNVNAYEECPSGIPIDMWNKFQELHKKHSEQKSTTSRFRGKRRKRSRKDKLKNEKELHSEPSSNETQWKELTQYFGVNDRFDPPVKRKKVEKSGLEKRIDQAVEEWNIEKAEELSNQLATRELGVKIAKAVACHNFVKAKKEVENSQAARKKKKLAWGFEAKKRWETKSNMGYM
UniProt Q5VUB5: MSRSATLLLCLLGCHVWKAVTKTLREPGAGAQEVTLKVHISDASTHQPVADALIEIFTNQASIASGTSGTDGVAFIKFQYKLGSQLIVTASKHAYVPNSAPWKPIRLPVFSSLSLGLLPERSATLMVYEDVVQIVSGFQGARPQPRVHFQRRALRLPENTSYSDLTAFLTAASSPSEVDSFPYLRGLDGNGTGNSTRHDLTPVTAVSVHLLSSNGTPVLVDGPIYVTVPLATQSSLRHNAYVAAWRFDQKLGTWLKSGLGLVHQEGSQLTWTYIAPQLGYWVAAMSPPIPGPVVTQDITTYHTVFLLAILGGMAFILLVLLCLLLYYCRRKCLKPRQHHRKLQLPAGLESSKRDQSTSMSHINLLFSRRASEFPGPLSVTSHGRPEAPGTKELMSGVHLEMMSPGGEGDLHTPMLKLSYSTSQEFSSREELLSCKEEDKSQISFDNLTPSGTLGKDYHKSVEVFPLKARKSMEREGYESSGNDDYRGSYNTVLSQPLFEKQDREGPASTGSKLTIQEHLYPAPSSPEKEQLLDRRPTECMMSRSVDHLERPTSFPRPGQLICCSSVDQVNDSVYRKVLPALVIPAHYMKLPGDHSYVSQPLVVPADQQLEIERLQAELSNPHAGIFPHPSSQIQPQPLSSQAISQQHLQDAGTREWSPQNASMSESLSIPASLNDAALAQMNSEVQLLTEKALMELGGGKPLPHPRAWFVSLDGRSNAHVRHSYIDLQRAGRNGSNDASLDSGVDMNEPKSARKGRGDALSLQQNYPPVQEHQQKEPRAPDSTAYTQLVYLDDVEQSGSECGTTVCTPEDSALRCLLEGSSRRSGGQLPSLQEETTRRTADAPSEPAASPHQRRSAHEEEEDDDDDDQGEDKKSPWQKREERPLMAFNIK

What was measured:
Assay in all cases: log2 fold change, soluble protein after heating vs DMSO (PISA); higher = thermal stabilisation; K562 cells, 10 uM, 30 min; active = over 0.2 and 3.5 SD of the protein, either way, in both replicates (recomputed)
erlotinib = compound: C#Cc1cccc(Nc2ncnc3cc(OCCOC)c(OCCOC)cc23)c1 [erlotinib]
Procedure, shortened: (§1)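 Thermal stability values are relative to control samples and come from duplicates. They are expressed as log2 fold changes. For measurement, K562 cells (2×10^6 cells/mL) received 10 μM compound for 30 min, and aliquots were heated for 3 min over 48°C-58°C, pooled, and extracted at 4°C in PBS with 0.5% NP-40. Soluble protein, the supernatant after 21,000xg for 90 min, was quantified by TMTpro 16plex LC-MS/MS with equalised channel sums.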

[1] = compound: C/C(=N\NC(=O)C1=CC(=CC=C1)S(=O)(=O)N2CCOCC2)/C3=C(C=CC(=C3)Cl)O
Procedure, shortened: as §1

[2] = compound: C1=CC(=C(C=C1Cl)C2=NC3=NC=CN=C3C(=N2)NC4=CC=NC=C4)F
Procedure, shortened: as §1

[3] = compound: C1=CC(=CC=C1C2=NC3=C(N2)C=C(C=C3)C(=O)N)OC4=CC=C(C=C4)Cl
Procedure, shortened: as §1

[4] = compound: C1=CC2=C(C=CC(=C2)/C=C\3/C(=O)NC(=NCC4=CC=CS4)S3)N=C1
Procedure, shortened: as §1

[5] = compound: C1=CC2=NC=CN=C2C=C1/C=C/3\C(=O)NC(=O)S3
Procedure, shortened: as §1

[6] = compound: C1=CC=C(C=C1)C2=NC(=C(N2)C3=CC=NC=C3)C4=CC(=C(C=C4)Cl)O
Procedure, shortened: as §1

[7] = compound: C1=CC=C2C(=C1)C3=NNC4=CC=CC(=C43)C2=O
Procedure, shortened: as §1

[8] = compound: C1CCN(C1)C(=O)NC2=CC=CC(=C2)NC3=NC=C(C(=N3)NCCC4=CN=CN4)Br
Procedure, shortened: as §1

[9] = compound: C1CN(CCC1(CC2=CC=C(C=C2)Cl)N)C3=NC=NC4=C3C=CN4
Procedure, shortened: as §1

Measured: log2 fold change

FAM114A2 (UniProt Q9NRY5)
inactive: erlotinib -0.001 | [1] 0.051 | [2] 0.055 | [3] -0.002 | [4] 0.008 | [5] 0.067 | [6] -0.018 | [7] -0.04 | [8] -0.002 | [9] -0.021

EXOSC5 (UniProt Q9NQT4)
inactive: erlotinib -0.024 | [1] -0.039 | [2] -0.05 | [3] 0.011 | [4] 0 | [5] 0.002 | [6] 0.019 | [7] 0.011 | [8] -0.033 | [9] -0.045

ERH (UniProt P84090)
inactive: erlotinib -0.033 | [1] -0.012 | [2] 0.048 | [3] 0.036 | [4] 0.014 | [5] 0.017 | [6] -0.017 | [7] -0.009 | [8] -0.088 | [9] -0.104

ERCC3 (UniProt P19447)
inactive: erlotinib -0.012 | [1] 0.058 | [2] -0.189 | [3] -0.081 | [4] 0.114 | [5] -0.078 | [6] 0.101 | [7] 0.051 | [8] -0.098 | [9] -0.162

FAM136A (UniProt Q96C01)
inactive: erlotinib 0 | [1] -0.015 | [2] 0.055 | [3] -0.012 | [4] 0.029 | [5] 0.081 | [6] 0.027 | [7] -0.012 | [8] -0.018 | [9] -0.043

EPS15 (UniProt P42566)
inactive: erlotinib -0.012 | [1] 0.015 | [2] -0.004 | [3] -0.033 | [4] 0.003 | [5] 0.055 | [6] -0.011 | [7] -0.011 | [8] 0.015 | [9] -0.206

ERMP1 (UniProt Q7Z2K6)
inactive: erlotinib -0.002 | [1] 0.014 | [2] 0 | [3] -0.004 | [4] -0.003 | [5] 0.025 | [6] 0.023 | [7] -0.022 | [8] -0.008 | [9] 0.044

EPM2AIP1 (UniProt Q7L775)
inactive: erlotinib 0.021 | [1] 0.03 | [2] -0.005 | [3] 0.012 | [4] 0.05 | [5] 0.024 | [6] -0.039 | [7] -0.036 | [8] -0.025 | [9] 0.024

Retrieved one by one from the entries so far (2):
ERMP1 (UniProt Q7Z2K6)
inactive: erlotinib -0.002 | [1] 0.014 | [2] 0 | [3] -0.004 | [4] -0.003 | [5] 0.025 | [6] 0.023 | [7] -0.022 | [8] -0.008 | [9] 0.044

EXOSC5 (UniProt Q9NQT4)
inactive: erlotinib -0.024 | [1] -0.039 | [2] -0.05 | [3] 0.011 | [4] 0 | [5] 0.002 | [6] 0.019 | [7] 0.011 | [8] -0.033 | [9] -0.045

Next records:

ERG28 (UniProt Q9UKR5)
inactive: erlotinib -0.114 | [1] -0.12 | [2] 0.103 | [3] 0.066 | [4] -0.11 | [5] 0.056 | [6] 0.019 | [7] 0.1 | [8] -0.068 | [9] 0.229

EXOSC2 (UniProt Q13868)
inactive: erlotinib 0.025 | [1] -0.005 | [2] -0.004 | [3] 0.013 | [4] 0.029 | [5] -0.005 | [6] -0.022 | [7] -0.001 | [8] -0.061 | [9] 0.032

ESYT2 isoform 2 (UniProt A0FGR8)
inactive: erlotinib 0.048 | [1] 0.031 | [2] 0.026 | [3] 0.01 | [4] 0.096 | [5] -0.016 | [6] 0.022 | [7] -0.027 | [8] 0.004 | [9] -0.01

ERAP2 (UniProt Q6P179)
inactive: erlotinib 0.385 | [2] 0.01 | [3] 0.02

EVI5 isoform 2 (UniProt O60447)
inactive: erlotinib -0.002 | [1] 0.654 | [3] 0.013 | [4] -0.273 | [6] 0.24 | [7] -0.216 | [8] -0.566 | [9] -0.128

ERCC8 (UniProt Q13216)
inactive: erlotinib 0.009 | [1] -0.018 | [3] -0.14 | [4] -0.012 | [5] -0.031 | [6] -0.02 | [7] -0.013 | [8] 0.017 | [9] -0.098

FAM117B (UniProt Q6P1L5)
inactive: erlotinib 0.088 | [1] 0.053 | [2] -0.134 | [3] 0.079 | [4] 0.098 | [6] 0.151 | [7] 0.099 | [8] 0.165 | [9] 0.09

F2RL3 (UniProt Q96RI0)
inactive: erlotinib -0.056 | [1] 0.026 | [3] -0.083 | [4] 0.039 | [6] -0.052 | [7] -0.12 | [8] -0.161 | [9] 0.065

ERF (UniProt P50548)
inactive: erlotinib -0.448 | [2] 0.127 | [3] -0.036 | [8] 0.058 | [9] 0.13

EWSR1 isoform 5 (UniProt Q01844)
inactive: erlotinib -0.026 | [1] -0.113 | [2] -0.056 | [3] 0.028 | [4] -0.059 | [5] 0.006 | [6] -0.032 | [7] -0.013 | [8] -0.017 | [9] 0.031

FAM118A (UniProt Q9NWS6)
inactive: [1] 0.005 | [2] 0.098 | [4] 0.083 | [5] 0.089 | [6] -0.365 | [7] 0.212 | [8] 0.084 | [9] 0.078

FAM120B (UniProt Q96EK7)
inactive: erlotinib -0.149 | [1] -0.169 | [3] -0.05 | [4] -0.033 | [7] 0.216

ERAL1 (UniProt O75616)
inactive: erlotinib 0.133 | [1] 0.183 | [2] -0.003 | [3] -0.226 | [4] 0.143 | [5] 0.029 | [7] -0.089

EPS8L2 isoform 3 (UniProt Q9H6S3)
inactive: erlotinib 0.015 | [2] 0.048 | [3] 0.131 | [6] -0.098 | [8] -0.019 | [9] -0.005

ERI3 (UniProt H0Y4B0)
inactive: erlotinib -0.042 | [2] -0.442 | [3] -0.069 | [5] -0.123

ESRRB isoform 1 (UniProt O95718)
inactive: erlotinib -0.133 | [3] -0.037 | [5] -0.046

FAM114A1 (UniProt Q8IWE2)
inactive: erlotinib -0.025 | [2] 0.383 | [3] 0.006 | [6] -0.174 | [8] 0.073 | [9] 0.04

EZH2 isoform 2 (UniProt Q15910)
inactive: erlotinib -0.036 | [1] 0.129 | [2] 0.163 | [3] 0.084 | [4] 0.046 | [5] 0.048 | [7] 0.054 | [8] -0.106 | [9] -0.062

FAM135A (UniProt Q9P2D6)
inactive: erlotinib 0.033 | [2] 0.07 | [3] -0.116

EPPK1 (UniProt P58107)
inactive: erlotinib -0.131 | [2] -0.365 | [3] -0.004 | [5] -0.099 | [6] -0.363 | [8] -0.16 | [9] -0.5

FADS2 (UniProt O95864)
inactive: erlotinib -0.105 | [3] -0.086

EPB41L5 (UniProt Q9HCM4)
inactive: erlotinib 0.015 | [2] -0.206 | [3] -0.018

ERCC6L (UniProt Q2NKX8)
inactive: [1] 0.02 | [2] -0.259 | [4] -0.012 | [5] 0.088 | [6] -0.076 | [7] -0.123 | [8] -0.101 | [9] -0.081

EXD2 (UniProt Q9NVH0)
inactive: erlotinib 0.013 | [2] -0.262 | [3] 0.021 | [6] 0.006

F10 (UniProt P00742)
inactive: erlotinib -0.199 | [2] 0.07 | [3] 0.081 | [5] -0.095 | [6] -0.089 | [8] 0.105 | [9] 0.206

ESYT2 (UniProt H7BXI1)
inactive: erlotinib 0.097 | [1] 0.091 | [2] -0.135 | [3] -0.106 | [4] -0.04 | [5] 0.032 | [7] 0.041

FAM185A (UniProt Q8N0U4)
inactive: erlotinib -0.1 | [1] 0.081 | [3] -0.161 | [4] -0.083 | [5] 0.105 | [6] -0.097 | [7] 0.075 | [8] -0.012 | [9] 0.098

FAM178B (UniProt Q8IXR5)
inactive: erlotinib -0.15 | [3] 0.157

FAM204A (UniProt Q9H8W3)
inactive: erlotinib -0.025 | [2] -0.467 | [3] 0.06 | [8] -0.145 | [9] -0.059

ERN1 (UniProt O75460)
inactive: erlotinib 0.046 | [2] -0.112 | [3] -0.035 | [6] 0 | [8] 0.022 | [9] 0.09

FAM126A (UniProt Q9BYI3)
inactive: erlotinib 0.185 | [1] 0.006 | [2] -0.019 | [3] 0.133 | [4] 0.151 | [6] -0.008 | [7] 0.15

FAM171A2 (UniProt A8MVW0)
inactive: erlotinib -0.051 | [3] 0.125 | [6] 0.174

FAM171A1 (UniProt Q5VUB5)
inactive: erlotinib -0.038 | [1] -0.112 | [2] -0.114 | [3] -0.04 | [4] 0.209 | [7] -0.394
